According to the supplement of paper PMC8612539:
≈ marks a conversion by molar mass, not a printed value. The source gives many values for each of these; only a part stands here.

System: Escherichia coli
Experiment: minimum inhibitory concentration (MIC)
Experimental: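 Broth microdilution MIC (Sensititre BOPO7F bovine plate, CLSI methods) of 19 antimicrobials against field isolates of P. multocida, M. haemolytica, H. somni (deep nasopharyngeal swabs) and E. coli, Enterococcus spp. (rectal swabs) from weaned dairy heifers. Incubation 16-24 h at 35 C. MIC is the lowest concentration preventing visible growth. Values with <= or > lie at the tested range limits. Trimethoprim-sulfamethoxazole is given as the trimethoprim component of a 1:19 mixture.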

C=C[C@]1(C)C[C@@H](OC(=O)CSCCN(CC)CC)[C@]2(C)[C@H](C)CC[C@]3(CCC(=O)[C@H]32)[C@@H](C)[C@@H]1O [Tiamulin]
Settings	minimum inhibitory concentration [µg/mL]
isolate (source animal id): 1	> 32
isolate (source animal id): 2	> 32
isolate (source animal id): 3	> 32
isolate (source animal id): 4	> 32
isolate (source animal id): 5	> 32
isolate (source animal id): 6	> 32
isolate (source animal id): 7	> 32
isolate (source animal id): 17	> 32
isolate (source animal id): 18	> 32
isolate (source animal id): 19	> 32
isolate (source animal id): 20	> 32
isolate (source animal id): 21	> 32
isolate (source animal id): 22	> 32
isolate (source animal id): 23	> 32
isolate (source animal id): 24	> 32
isolate (source animal id): 25	> 32
isolate (source animal id): 26	> 32
isolate (source animal id): 27	> 32
isolate (source animal id): 28	> 32
isolate (source animal id): 29	> 32
isolate (source animal id): 30	> 32
isolate (source animal id): 31	> 32
isolate (source animal id): 32	> 32
isolate (source animal id): 33	> 32
isolate (source animal id): 34	32 (≈ 64.8 µM)
isolate (source animal id): 35	> 32
isolate (source animal id): 36	> 32
isolate (source animal id): 37	> 32
isolate (source animal id): 38	> 32
isolate (source animal id): 39	> 32
isolate (source animal id): 40	32 (≈ 64.8 µM)
isolate (source animal id): 41	> 32
isolate (source animal id): 42	> 32
isolate (source animal id): 43	32 (≈ 64.8 µM)
isolate (source animal id): 44	> 32
isolate (source animal id): 45	> 32
isolate (source animal id): 46	32 (≈ 64.8 µM)
isolate (source animal id): 47	> 32
isolate (source animal id): 48	> 32
isolate (source animal id): 49	> 32
isolate (source animal id): 50	> 32
isolate (source animal id): 51	> 32
isolate (source animal id): 52	> 32
isolate (source animal id): 53	> 32
isolate (source animal id): 54	16 (≈ 32.4 µM)
isolate (source animal id): 55	> 32
isolate (source animal id): 56	> 32
isolate (source animal id): 57	> 32
isolate (source animal id): 58	> 32
isolate (source animal id): 59	> 32
isolate (source animal id): 60	32 (≈ 64.8 µM)
isolate (source animal id): 61	> 32
isolate (source animal id): 62	> 32
isolate (source animal id): 63	> 32
isolate (source animal id): 64	> 32
isolate (source animal id): 65	> 32
isolate (source animal id): 66	> 32
isolate (source animal id): 67	32 (≈ 64.8 µM)
isolate (source animal id): 68	> 32
isolate (source animal id): 69	> 32
isolate (source animal id): 70	> 32
isolate (source animal id): 71	> 32
isolate (source animal id): 72	> 32
isolate (source animal id): 73	> 32
isolate (source animal id): 74	> 32
isolate (source animal id): 75	> 32
isolate (source animal id): 76	> 32
isolate (source animal id): 77	> 32
isolate (source animal id): 78	> 32
isolate (source animal id): 79	> 32
isolate (source animal id): 80	> 32
isolate (source animal id): 81	> 32
isolate (source animal id): 82	> 32
isolate (source animal id): 83	> 32
isolate (source animal id): 84	> 32
isolate (source animal id): 85	> 32
isolate (source animal id): 86	> 32
isolate (source animal id): 87	32 (≈ 64.8 µM)
isolate (source animal id): 88	> 32
isolate (source animal id): 89	> 32
isolate (source animal id): 90	> 32
isolate (source animal id): 91	> 32
isolate (source animal id): 92	> 32
isolate (source animal id): 93	> 32
isolate (source animal id): 94	> 32
isolate (source animal id): 95	32 (≈ 64.8 µM)
isolate (source animal id): 96	> 32
isolate (source animal id): 97	> 32
isolate (source animal id): 189	32 (≈ 64.8 µM)
isolate (source animal id): 190	> 32
isolate (source animal id): 191	> 32
isolate (source animal id): 192	> 32
isolate (source animal id): 193	32 (≈ 64.8 µM)
isolate (source animal id): 194	> 32
isolate (source animal id): 195	> 32
isolate (source animal id): 196	> 32
isolate (source animal id): 197	> 32
isolate (source animal id): 198	32 (≈ 64.8 µM)
isolate (source animal id): 199	> 32
isolate (source animal id): 200	> 32
isolate (source animal id): 201	> 32
isolate (source animal id): 202	> 32
isolate (source animal id): 203	> 32
isolate (source animal id): 204	> 32
isolate (source animal id): 205	> 32
isolate (source animal id): 206	> 32
isolate (source animal id): 207	32 (≈ 64.8 µM)
isolate (source animal id): 208	32 (≈ 64.8 µM)
isolate (source animal id): 209	> 32
isolate (source animal id): 210	> 32
isolate (source animal id): 211	32 (≈ 64.8 µM)
isolate (source animal id): 212	32 (≈ 64.8 µM)
isolate (source animal id): 213	> 32
isolate (source animal id): 214	32 (≈ 64.8 µM)
isolate (source animal id): 215	> 32
isolate (source animal id): 216	> 32
isolate (source animal id): 217	16 (≈ 32.4 µM)
isolate (source animal id): 218	> 32
isolate (source animal id): 219	> 32
isolate (source animal id): 220	> 32
isolate (source animal id): 221	> 32
isolate (source animal id): 222	32 (≈ 64.8 µM)
isolate (source animal id): 223	32 (≈ 64.8 µM)
isolate (source animal id): 224	> 32
isolate (source animal id): 225	> 32
isolate (source animal id): 226	> 32
isolate (source animal id): 227	32 (≈ 64.8 µM)
isolate (source animal id): 228	16 (≈ 32.4 µM)
isolate (source animal id): 229	> 32
isolate (source animal id): 230	> 32
isolate (source animal id): 231	> 32
isolate (source animal id): 232	> 32
isolate (source animal id): 233	> 32
isolate (source animal id): 234	> 32
isolate (source animal id): 235	> 32
isolate (source animal id): 236	> 32
isolate (source animal id): 237	> 32
isolate (source animal id): 238	> 32
isolate (source animal id): 239	> 32
isolate (source animal id): 240	> 32
isolate (source animal id): 241	> 32
isolate (source animal id): 242	> 32
isolate (source animal id): 243	> 32
isolate (source animal id): 244	> 32
isolate (source animal id): 245	> 32
isolate (source animal id): 246	> 32
isolate (source animal id): 247	16 (≈ 32.4 µM)
isolate (source animal id): 248	> 32
isolate (source animal id): 249	> 32
isolate (source animal id): 250	> 32
isolate (source animal id): 251	> 32
isolate (source animal id): 252	> 32
isolate (source animal id): 253	> 32
isolate (source animal id): 254	> 32
isolate (source animal id): 255	> 32
isolate (source animal id): 256	> 32
isolate (source animal id): 257	> 32
isolate (source animal id): 258	> 32
isolate (source animal id): 259	> 32
isolate (source animal id): 260	> 32
isolate (source animal id): 261	> 32
isolate (source animal id): 262	> 32
isolate (source animal id): 263	> 32
isolate (source animal id): 264	> 32
isolate (source animal id): 265	> 32
isolate (source animal id): 266	32 (≈ 64.8 µM)
isolate (source animal id): 267	32 (≈ 64.8 µM)
isolate (source animal id): 268	> 32
isolate (source animal id): 269	> 32
isolate (source animal id): 270	> 32
isolate (source animal id): 271	32 (≈ 64.8 µM)
isolate (source animal id): 272	> 32
isolate (source animal id): 273	> 32
isolate (source animal id): 274	> 32
isolate (source animal id): 275	> 32
isolate (source animal id): 276	> 32
isolate (source animal id): 277	> 32
isolate (source animal id): 278	> 32
isolate (source animal id): 279	> 32
isolate (source animal id): 280	> 32
isolate (source animal id): 281	> 32
isolate (source animal id): 282	> 32
isolate (source animal id): 283	> 32
isolate (source animal id): 284	> 32
isolate (source animal id): 285	32 (≈ 64.8 µM)
isolate (source animal id): 286	> 32
isolate (source animal id): 287	> 32
isolate (source animal id): 288	> 32
isolate (source animal id): 289	> 32
isolate (source animal id): 290	> 32
isolate (source animal id): 291	> 32
isolate (source animal id): 292	> 32
isolate (source animal id): 293	> 32
isolate (source animal id): 294	16 (≈ 32.4 µM)
isolate (source animal id): 295	> 32
isolate (source animal id): 296	32 (≈ 64.8 µM)
isolate (source animal id): 297	> 32
isolate (source animal id): 298	> 32
isolate (source animal id): 299	> 32
isolate (source animal id): 300	32 (≈ 64.8 µM)
isolate (source animal id): 301	> 32
isolate (source animal id): 302	32 (≈ 64.8 µM)
isolate (source animal id): 303	> 32
isolate (source animal id): 304	> 32
isolate (source animal id): 305	> 32
isolate (source animal id): 306	> 32
isolate (source animal id): 307	32 (≈ 64.8 µM)
isolate (source animal id): 308	> 32
isolate (source animal id): 309	> 32
isolate (source animal id): 310	> 32
isolate (source animal id): 311	> 32
isolate (source animal id): 312	32 (≈ 64.8 µM)
isolate (source animal id): 313	> 32
isolate (source animal id): 314	32 (≈ 64.8 µM)
isolate (source animal id): 315	> 32
isolate (source animal id): 316	> 32
isolate (source animal id): 317	16 (≈ 32.4 µM)
isolate (source animal id): 318	32 (≈ 64.8 µM)
isolate (source animal id): 319	32 (≈ 64.8 µM)
isolate (source animal id): 320	> 32
isolate (source animal id): 321	> 32
isolate (source animal id): 322	> 32
isolate (source animal id): 323	> 32
isolate (source animal id): 324	> 32
isolate (source animal id): 325	> 32
isolate (source animal id): 326	> 32
isolate (source animal id): 327	32 (≈ 64.8 µM)
isolate (source animal id): 328	> 32
isolate (source animal id): 329	> 32
isolate (source animal id): 330	> 32
isolate (source animal id): 331	> 32
isolate (source animal id): 332	> 32
isolate (source animal id): 333	> 32
isolate (source animal id): 334	> 32
isolate (source animal id): 335	> 32
isolate (source animal id): 336	> 32
isolate (source animal id): 337	> 32
isolate (source animal id): 338	> 32
isolate (source animal id): 339	32 (≈ 64.8 µM)
isolate (source animal id): 340	> 32
isolate (source animal id): 341	> 32
